According to publication PMC10894231:
These are yes or no findings as the source states them, for the method shown. Binding seen in cells or lysates may run through a third protein. Some binding calls cover weakened binding; strength is not graded here. Sequences can lack the tags named with a protein.

Sequences of proteins named here, by UniProt entry; tags and fusion partners are left off.
UniProt Q99873: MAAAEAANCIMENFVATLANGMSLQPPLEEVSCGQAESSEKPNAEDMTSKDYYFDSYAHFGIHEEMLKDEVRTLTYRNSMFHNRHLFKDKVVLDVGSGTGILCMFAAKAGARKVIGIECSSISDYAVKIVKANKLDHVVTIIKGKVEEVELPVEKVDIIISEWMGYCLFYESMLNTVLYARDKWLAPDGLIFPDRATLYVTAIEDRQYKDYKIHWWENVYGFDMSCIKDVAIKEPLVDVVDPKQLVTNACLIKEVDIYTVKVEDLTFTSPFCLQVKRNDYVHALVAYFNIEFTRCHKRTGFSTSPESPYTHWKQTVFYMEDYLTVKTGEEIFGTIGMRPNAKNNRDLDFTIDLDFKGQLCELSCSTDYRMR

Target: T1, Flag-PGK1 wild type (UniProt P00558)
T1 sequence: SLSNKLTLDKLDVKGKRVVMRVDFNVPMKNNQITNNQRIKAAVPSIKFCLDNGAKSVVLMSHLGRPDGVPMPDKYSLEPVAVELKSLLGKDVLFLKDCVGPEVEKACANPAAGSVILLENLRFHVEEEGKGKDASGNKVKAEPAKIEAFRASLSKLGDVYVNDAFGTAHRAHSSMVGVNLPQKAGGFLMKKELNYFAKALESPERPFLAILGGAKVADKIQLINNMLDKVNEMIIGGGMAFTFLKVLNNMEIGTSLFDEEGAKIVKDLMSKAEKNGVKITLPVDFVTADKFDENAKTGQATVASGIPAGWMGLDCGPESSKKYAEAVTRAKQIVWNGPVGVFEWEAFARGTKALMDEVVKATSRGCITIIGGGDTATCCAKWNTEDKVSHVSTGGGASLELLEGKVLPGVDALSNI
Assay: co-IP; anti-FLAG beads, IP of Flag-PGK1 from transfected HEK293T and HCT116 cells, western blot of the partner; for ERK also HCT116 cells with PRMT1 overexpressed, PRMT1 silenced, or treated with the ERK inhibitor SCH772984

binding: binds
Substance: PRMT1, endogenous (from UniProt Q99873 1-371) (enzyme)
